Laboratory results from PubChem BioAssay (NCATS).
Inconclusive results, whose numbers are uncertain, are shown with a selection of clear calls. The source made the active and inactive calls. The call rests on the fitted dose curve; in most records, active means well fitted curve in either direction with a large enough effect (not every such curve was filed as active); inconclusive means small, poorly fitted or top-dose-only effect, or another doubt; inactive means flat fitted curve, though single readings scatter.

Assay: Stat Signaling Pathway (AID 446);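 further: ME-180 cervical cancer cells given 40 pM IL-6 alongside compound; SIE-controlled beta-lactamase reporter measured as 460/530 nm FRET emission ratio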
Details: ME-180 (cervical carcinoma) SIE beta-lactamase reporter, IL-6 stimulated, 5 h; at 7.69 µM (top of the series) unless noted
How it was run: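 FRET read-out (405 nm excitation, 460/530 nm emission) of a beta-lactamase reporter under a STAT-inducible element in ME-180 cervical carcinoma cells. Cells with compound receive 40 pM IL-6 for 5 h. Values are normalised to AC90 stimulation and AC90 JAK-inhibitor controls.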
On the % scale 0 is the no-effect control and ±100 the full control effect.

SMILES | activity, negative = inhibition
O=C(O)CCc1c2ccc(=O)c(O)c-2oc2c(O)c(O)ccc12 | inconclusive: -83.6% [inhibitor]
COCc1cc(C)nc(N)c1C#N | inactive: -0.857% [at 17.2 µM]
CC(C)(N)CO[C@H]1C[C@H]2CC[C@@]1(C)C2(C)C | inconclusive: 10.6% [inhibitor]
Cc1c(C)n(C(=O)CSc2nccn2C)c2ccccc12 | inactive: 0.828% [at 17.2 µM]
O=C(O)c1ccccc1-c1ccccc1C(=O)Nc1ccc2c(c1)Cc1cc(F)ccc1-2 | inconclusive: -45.2% [inhibitor]
O=c1c(-c2cccs2)nc2cnc(N3CCOCC3)nc2n1Cc1cccs1 | inconclusive: 68.5% [activator]
COc1cc2c(cc1OC)C1(CCCC1)C(N)=C2C#N | inconclusive: -40.3% [inhibitor] [at 17.2 µM]
CC1(C)Cc2c(C#N)c(NCC3CCCO3)nc(-c3ccco3)c2CO1 (configuration not stated) | inconclusive: 7.12% [inhibitor] [at 17.2 µM]
C[C@]12CC[C@@H]3C(=CCc4cc(O)ccc43)[C@@H]1CCC2=O | inconclusive: -32.2% [inhibitor] [at 17.2 µM]
COC(=O)c1ccc(C2/C(=C(/O)c3ccc(OC)cc3)C(=O)C(=O)N2Cc2ccco2)cc1 (configuration not stated) | inactive: -22.4% [at 17.2 µM]
CCc1nc(SCc2cccnc2)c(C#N)cc1C | inactive: 0.873% [at 17.2 µM]
COc1ccc(Oc2ncc3nc(-c4cccs4)c(=O)n(-c4ccccc4)c3n2)cc1 | inconclusive: 30.5% [activator]
O=C(O)c1nnsc1-c1csnn1 | inconclusive: 9.16% [inhibitor]
Fc1ccc(C2C3=C(Nc4ncnn42)c2ccccc2OC3c2ccncc2)cc1 (configuration not stated) | inactive: -12.3% [at 17.2 µM]
CCOC(=O)c1[nH]c2cc3c(cc2c1NC(=O)CN1CCc2ccccc2C1)OCO3 | inconclusive: -34.2% [inhibitor] [at 17.2 µM]
COc1ccc2c(c1OC)C(=O)N1c3ccccc3SC21 (configuration not stated) | inactive: -2.16% [at 17.2 µM]

Pulled by structure from the list above (2):
SMILES | activity, negative = inhibition
COc1cc2c(cc1OC)C1(CCCC1)C(N)=C2C#N | inconclusive: -40.3% [inhibitor] [at 17.2 µM]
O=c1c(-c2cccs2)nc2cnc(N3CCOCC3)nc2n1Cc1cccs1 | inconclusive: 68.5% [activator]

Following part

SMILES | activity, negative = inhibition
N#CCCn1c(=O)c(-c2cccs2)nc2cnc(Oc3ccccc3)nc21 | inconclusive: 37.2% [activator]
C[C@H](O)[C@H](O)[C@@H]1CNc2nc(N)[nH]c(=O)c2N1 | inactive: 18.8% [at 38 µM]
CC(=O)NCCNc1nc(-c2ccc(N(C)C)cc2)nc2ccccc12 | inconclusive: 37.6% [activator]
CC(=O)[C@@H]1CC[C@@H]2[C@@H]3CC=C4C[C@H](OS(=O)(=O)O)CC[C@@]4(C)[C@H]3CC[C@]21C | inconclusive: -60.8% [inhibitor] [at 38 µM]
CCN(CC)COC(=S)S | inconclusive: 30.3% [activator]
COc1cc(-c2nn3c(COc4ccccc4)nnc3s2)cc(OC)c1OC | inconclusive: 47.8% [activator] [at 17.2 µM]
Cc1ccc(SCN2CCCCC2)cc1 (tested in a mixture with another compound) | inconclusive: -54.8% [inhibitor]
C=C(C)CN1CCN(c2c(CCC#N)c(C)c(C#N)c3nc4ccccc4n23)CC1 | inactive: 9.9% [at 17.2 µM]
Cc1nn(-c2cccc(Cl)c2)c2c1C(c1ccncc1)C(C#N)=C(N)O2 (configuration not stated) | inconclusive: -33% [inhibitor] [at 17.2 µM]
COc1cc2nc(N3CCN(C(=O)OCc4ccccc4)[C@H](C(=O)NC(C)(C)C)C3)nc(N)c2cc1OC | inconclusive: -30.3% [inhibitor] [at 38 µM]
COc1ccc(C(=O)Cn2c(Br)nc3c2c(=O)n(C)c(=O)n3C)cc1OC | inactive: 0.59% [at 17.2 µM]
Oc1ccc(Br)cc1CNn1cnnc1 | inconclusive: 93.9% [activator] [at 17.2 µM]
CN1CCN(c2ncnc3c2[nH]c2ccc(F)cc23)CC1 | inactive: 11.7% [at 17.2 µM]
CCNc1ncc2nc(-c3ccc(Cl)cc3)c(=O)n(C[C@H]3CCCO3)c2n1 | inconclusive: 64.7% [activator]
Cn1c(NCc2cccnc2)nc2c1c(=O)n(Cc1ccccc1F)c(=O)n2C | inactive: -20.6% [at 17.2 µM]
COc1ccc(Cc2ccc3[nH]c(=O)cc(C)c3c2)cc1S(=O)(=O)O | inactive: 5.41%
